Assay in all cases: affinity purification with mass spectrometry
The target in test [1] is SARS-CoV-2 Nsp2 (SARS-CoV-2) (UniProt P0DTD1).
Test [2] deals with SARS-CoV-2 Orf9c (SARS-CoV-2) (UniProt P0DTD3).
Test [3] concerns the target SARS-CoV-2 Nsp7 (SARS-CoV-2) (UniProt P0DTD1).
Test [4] deals with SARS-CoV-2 Orf9b (SARS-CoV-2) (UniProt P0DTD2).
For test [5], the target named is SARS-CoV-2 Nsp13 (SARS-CoV-2) (UniProt P0DTD1).
Test [6] concerns the target SARS-CoV-2 Nsp6 (SARS-CoV-2) (UniProt P0DTD1).
In test [7] the target is SARS-CoV-2 Envelope (E) (SARS-CoV-2) (UniProt P0DTC4).
In test [8] the target is SARS-CoV-2 Nsp14 (SARS-CoV-2) (UniProt P0DTD1).
Test [9] has as its target SARS-CoV-2 Nsp12 (SARS-CoV-2) (UniProt P0DTD1).
The target in test [10] is SARS-CoV-2 Nsp9 (SARS-CoV-2) (UniProt P0DTD1).

The chains behind the UniProt entries cited, without tags or fusion partners. Residues count along the entry.
UniProt P0DTD3: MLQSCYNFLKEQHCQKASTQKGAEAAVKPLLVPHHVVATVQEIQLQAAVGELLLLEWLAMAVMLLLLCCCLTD
UniProt P0DTD2: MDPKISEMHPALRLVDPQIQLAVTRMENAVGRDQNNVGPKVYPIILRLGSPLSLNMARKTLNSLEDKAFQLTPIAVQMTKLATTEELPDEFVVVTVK
UniProt P0DTC4: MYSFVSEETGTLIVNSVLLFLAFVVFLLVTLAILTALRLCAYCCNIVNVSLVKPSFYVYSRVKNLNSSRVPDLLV
UniProt Q5BJF2: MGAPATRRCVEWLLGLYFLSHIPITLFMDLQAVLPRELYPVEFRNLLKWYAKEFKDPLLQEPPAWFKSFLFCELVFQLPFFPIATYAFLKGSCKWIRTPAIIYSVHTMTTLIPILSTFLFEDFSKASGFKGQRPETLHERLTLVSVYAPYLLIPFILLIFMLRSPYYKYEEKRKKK
UniProt Q86UT6, residues 87-975: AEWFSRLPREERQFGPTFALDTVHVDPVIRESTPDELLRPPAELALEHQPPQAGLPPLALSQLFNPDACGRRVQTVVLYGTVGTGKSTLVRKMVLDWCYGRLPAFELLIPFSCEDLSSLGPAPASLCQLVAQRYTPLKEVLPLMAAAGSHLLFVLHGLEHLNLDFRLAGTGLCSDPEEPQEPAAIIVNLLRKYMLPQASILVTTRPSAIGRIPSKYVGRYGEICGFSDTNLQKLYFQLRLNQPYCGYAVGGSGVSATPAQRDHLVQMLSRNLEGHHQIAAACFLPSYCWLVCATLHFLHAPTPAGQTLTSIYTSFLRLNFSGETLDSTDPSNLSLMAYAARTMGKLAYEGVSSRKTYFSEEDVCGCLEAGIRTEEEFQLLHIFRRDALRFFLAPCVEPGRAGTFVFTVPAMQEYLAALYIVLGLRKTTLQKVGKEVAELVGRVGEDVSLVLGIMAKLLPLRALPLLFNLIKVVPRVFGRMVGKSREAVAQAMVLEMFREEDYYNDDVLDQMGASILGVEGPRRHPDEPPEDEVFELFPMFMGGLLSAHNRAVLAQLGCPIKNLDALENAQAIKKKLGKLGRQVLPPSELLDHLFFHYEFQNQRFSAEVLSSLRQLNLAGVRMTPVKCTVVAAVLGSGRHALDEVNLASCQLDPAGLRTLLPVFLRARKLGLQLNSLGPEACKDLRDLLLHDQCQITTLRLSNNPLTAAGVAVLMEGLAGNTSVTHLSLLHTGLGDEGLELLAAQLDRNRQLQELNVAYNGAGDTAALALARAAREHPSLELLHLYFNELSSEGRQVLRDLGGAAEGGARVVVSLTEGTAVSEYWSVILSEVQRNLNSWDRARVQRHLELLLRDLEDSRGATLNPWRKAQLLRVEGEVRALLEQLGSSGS
UniProt P21964: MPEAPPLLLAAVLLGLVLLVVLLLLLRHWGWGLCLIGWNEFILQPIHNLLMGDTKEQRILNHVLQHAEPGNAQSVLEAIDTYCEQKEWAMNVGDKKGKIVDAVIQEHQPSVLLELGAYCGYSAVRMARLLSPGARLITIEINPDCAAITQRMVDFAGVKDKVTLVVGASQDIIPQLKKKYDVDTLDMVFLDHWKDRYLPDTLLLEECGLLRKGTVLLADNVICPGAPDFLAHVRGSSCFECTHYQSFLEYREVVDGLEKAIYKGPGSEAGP
UniProt P27448: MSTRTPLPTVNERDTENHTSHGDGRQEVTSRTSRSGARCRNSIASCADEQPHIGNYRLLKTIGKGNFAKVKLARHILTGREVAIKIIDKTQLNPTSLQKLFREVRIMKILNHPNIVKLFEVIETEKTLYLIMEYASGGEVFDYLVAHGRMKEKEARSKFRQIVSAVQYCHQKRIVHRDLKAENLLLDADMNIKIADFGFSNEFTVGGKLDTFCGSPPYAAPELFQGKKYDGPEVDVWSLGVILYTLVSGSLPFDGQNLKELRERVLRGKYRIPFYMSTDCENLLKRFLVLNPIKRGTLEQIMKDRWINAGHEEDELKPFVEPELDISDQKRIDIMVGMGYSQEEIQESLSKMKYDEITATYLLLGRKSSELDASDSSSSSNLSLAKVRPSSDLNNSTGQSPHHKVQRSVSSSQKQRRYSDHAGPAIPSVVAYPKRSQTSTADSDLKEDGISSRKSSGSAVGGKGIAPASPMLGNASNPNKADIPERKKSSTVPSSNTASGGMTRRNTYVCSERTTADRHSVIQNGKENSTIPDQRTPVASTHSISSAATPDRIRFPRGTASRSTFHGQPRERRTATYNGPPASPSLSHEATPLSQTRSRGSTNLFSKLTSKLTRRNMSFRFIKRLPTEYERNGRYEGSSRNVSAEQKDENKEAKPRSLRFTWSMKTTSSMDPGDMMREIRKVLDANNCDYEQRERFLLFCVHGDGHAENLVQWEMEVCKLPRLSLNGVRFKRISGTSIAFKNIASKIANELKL
UniProt Q9H2J7: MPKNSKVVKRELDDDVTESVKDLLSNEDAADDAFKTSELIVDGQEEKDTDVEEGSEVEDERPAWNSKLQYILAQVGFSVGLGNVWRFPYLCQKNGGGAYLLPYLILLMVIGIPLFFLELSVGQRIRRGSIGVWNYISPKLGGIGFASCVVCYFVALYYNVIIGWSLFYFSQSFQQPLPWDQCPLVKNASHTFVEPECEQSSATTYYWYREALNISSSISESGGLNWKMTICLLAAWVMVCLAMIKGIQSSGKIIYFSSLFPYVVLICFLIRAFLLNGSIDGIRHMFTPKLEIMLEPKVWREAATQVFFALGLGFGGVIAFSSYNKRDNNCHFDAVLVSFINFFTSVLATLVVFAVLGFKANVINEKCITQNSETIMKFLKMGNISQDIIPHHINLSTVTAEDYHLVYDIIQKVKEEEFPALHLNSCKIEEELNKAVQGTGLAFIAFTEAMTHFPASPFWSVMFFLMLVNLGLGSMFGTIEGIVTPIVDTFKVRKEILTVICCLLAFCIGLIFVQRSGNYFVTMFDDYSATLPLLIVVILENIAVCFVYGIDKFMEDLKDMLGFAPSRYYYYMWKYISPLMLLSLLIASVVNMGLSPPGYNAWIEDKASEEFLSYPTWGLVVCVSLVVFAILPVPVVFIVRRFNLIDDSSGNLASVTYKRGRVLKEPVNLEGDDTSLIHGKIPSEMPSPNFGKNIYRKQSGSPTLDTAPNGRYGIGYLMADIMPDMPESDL
UniProt P25440: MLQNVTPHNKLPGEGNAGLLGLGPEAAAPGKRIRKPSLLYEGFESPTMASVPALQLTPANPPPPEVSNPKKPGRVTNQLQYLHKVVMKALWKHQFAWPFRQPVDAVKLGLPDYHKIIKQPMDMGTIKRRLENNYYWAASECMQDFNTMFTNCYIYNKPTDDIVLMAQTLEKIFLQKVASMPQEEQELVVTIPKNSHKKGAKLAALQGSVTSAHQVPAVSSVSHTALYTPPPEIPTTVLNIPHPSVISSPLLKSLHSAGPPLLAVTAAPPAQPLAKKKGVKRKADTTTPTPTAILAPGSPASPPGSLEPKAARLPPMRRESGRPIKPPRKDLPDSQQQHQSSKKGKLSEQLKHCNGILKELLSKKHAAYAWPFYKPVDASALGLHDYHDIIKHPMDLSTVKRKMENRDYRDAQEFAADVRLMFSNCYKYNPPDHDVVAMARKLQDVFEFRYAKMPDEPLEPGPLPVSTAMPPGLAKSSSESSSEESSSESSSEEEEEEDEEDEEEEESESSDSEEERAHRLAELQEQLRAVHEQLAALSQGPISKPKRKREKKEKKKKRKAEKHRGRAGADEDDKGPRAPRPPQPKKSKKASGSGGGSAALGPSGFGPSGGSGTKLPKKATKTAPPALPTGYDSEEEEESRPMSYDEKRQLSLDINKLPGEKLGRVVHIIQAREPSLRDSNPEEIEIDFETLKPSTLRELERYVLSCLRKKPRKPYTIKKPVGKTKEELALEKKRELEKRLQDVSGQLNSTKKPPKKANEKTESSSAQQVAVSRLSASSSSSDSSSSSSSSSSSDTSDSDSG
UniProt Q7KZI7: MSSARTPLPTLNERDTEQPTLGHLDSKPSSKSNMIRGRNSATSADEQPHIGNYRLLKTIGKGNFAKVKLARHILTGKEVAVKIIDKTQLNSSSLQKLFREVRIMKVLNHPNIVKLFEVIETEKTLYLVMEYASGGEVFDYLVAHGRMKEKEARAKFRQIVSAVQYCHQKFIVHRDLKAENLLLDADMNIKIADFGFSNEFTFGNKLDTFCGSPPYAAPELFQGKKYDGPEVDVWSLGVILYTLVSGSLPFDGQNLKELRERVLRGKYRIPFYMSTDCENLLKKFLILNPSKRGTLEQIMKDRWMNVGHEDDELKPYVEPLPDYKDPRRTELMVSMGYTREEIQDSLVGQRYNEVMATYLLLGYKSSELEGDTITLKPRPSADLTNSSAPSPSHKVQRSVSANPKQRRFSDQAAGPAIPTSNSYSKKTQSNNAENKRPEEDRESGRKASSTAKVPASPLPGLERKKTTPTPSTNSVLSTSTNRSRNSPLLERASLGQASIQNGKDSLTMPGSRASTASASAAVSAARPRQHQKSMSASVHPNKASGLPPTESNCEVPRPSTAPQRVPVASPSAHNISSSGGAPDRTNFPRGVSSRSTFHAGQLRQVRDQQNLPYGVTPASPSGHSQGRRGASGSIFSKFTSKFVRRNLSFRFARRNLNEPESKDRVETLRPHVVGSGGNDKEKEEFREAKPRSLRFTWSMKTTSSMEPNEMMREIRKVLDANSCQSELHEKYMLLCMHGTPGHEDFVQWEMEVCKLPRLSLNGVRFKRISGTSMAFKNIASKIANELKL
UniProt Q13546: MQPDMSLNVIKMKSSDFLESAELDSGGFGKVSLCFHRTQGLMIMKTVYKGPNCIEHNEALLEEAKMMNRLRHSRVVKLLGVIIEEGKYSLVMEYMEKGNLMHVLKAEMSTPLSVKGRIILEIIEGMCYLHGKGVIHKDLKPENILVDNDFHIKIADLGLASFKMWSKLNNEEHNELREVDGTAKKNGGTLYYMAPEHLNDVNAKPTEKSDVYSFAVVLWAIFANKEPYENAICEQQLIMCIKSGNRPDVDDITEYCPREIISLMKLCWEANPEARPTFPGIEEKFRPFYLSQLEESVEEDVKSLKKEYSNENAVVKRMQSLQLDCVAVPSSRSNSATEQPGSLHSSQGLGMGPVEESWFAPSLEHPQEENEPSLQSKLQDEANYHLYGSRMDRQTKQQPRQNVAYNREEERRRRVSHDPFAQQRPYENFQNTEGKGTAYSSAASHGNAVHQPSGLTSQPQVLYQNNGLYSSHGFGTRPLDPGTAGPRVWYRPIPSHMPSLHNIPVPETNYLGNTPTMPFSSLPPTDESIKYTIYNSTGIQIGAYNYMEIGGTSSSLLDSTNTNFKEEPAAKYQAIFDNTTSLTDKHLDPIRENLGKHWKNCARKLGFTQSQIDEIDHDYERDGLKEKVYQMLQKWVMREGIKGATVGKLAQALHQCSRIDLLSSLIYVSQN
UniProt Q8TD19: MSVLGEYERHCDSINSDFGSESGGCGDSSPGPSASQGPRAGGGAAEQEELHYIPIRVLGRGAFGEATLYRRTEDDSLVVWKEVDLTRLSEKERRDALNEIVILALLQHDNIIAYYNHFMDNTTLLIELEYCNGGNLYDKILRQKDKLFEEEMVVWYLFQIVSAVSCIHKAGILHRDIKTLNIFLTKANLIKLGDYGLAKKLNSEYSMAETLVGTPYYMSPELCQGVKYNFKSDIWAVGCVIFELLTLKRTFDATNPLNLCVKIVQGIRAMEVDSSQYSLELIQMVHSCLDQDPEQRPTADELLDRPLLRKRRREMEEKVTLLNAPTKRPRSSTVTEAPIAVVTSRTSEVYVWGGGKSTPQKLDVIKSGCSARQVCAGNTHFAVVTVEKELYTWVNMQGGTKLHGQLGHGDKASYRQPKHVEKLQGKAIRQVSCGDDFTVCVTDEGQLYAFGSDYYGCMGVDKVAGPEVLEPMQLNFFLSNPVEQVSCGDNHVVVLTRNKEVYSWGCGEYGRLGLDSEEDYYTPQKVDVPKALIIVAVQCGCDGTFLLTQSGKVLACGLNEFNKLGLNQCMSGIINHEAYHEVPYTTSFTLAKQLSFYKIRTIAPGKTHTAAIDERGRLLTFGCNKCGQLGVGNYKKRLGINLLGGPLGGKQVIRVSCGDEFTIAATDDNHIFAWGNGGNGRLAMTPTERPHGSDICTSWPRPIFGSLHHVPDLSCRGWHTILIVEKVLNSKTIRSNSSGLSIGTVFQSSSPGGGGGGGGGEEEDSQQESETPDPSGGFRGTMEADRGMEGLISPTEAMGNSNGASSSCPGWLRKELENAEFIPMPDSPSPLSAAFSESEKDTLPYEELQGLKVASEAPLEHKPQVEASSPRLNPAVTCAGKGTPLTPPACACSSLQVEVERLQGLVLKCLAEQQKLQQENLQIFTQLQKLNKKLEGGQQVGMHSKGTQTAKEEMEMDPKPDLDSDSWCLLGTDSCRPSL

The results in this text go back to publication PMC7239059.

No constants are given. Whether binding was seen depends on the method and setting. Binding seen in cells or lysates may run through a third protein. A yes stands for co-enrichment or nearness to the bait. Other partners may have been found.

In the case of EIF4H (from UniProt Q15056 1-248), the binding entry in [1] is on record as “binds”.

TMEM97 (from UniProt Q5BJF2 1-176): the binding result in [2] is given as “binds”.

As for NLRX1 (from UniProt Q86UT6 87-975), in test [2], the binding entry is “binds”.

As to COMT (from UniProt P21964 1-271), the binding result in test [3] is “binds”.

For the substance MARK3 (from UniProt P27448 1-753), in test [4], the binding entry is given as “binds”.

Turning to PTGES2 (from UniProt Q9H7Z7 1-377), the binding entry in test [3] is on record as “binds”.

With F2RL1 (from UniProt P55085), the binding result in [2] is on record as “binds”.

As to “TANK-binding kinase 1-binding protein 1 (TBKBP1/SINTBAD) (from UniProt A7MCY6 1-615)”, the binding entry in test [5] is reported as “binds”.

In the case of CEP250 (from UniProt Q9BV73 1-2442), the binding result in test [5] is recorded as “binds”.

“leucine importer B(0)AT2 (SLC6A15) (from UniProt Q9H2J7 1-730)”: in test [6], the binding result is “binds”.

Regarding BRD2 (from UniProt P25440 1-801), in test [7], the binding result is given as “binds”.

Regarding MARK2 (from UniProt Q7KZI7 1-788), the binding entry in [4] is given as “binds”.

As to “Inosine-5'-monophosphate dehydrogenase (IMPDH2) (from UniProt P12268 1-514)”, the binding result in test [8] is “binds”.

On to ABCC1 (from UniProt P33527 1-1531), for which the binding result in [2] is listed as “binds”.

Turning to RIPK1 (from UniProt Q13546 1-671), the binding entry in [9] is listed as “binds”.

As to ATP6AP1 (from UniProt Q15904 42-470), in [6], the binding result is reported as “binds”.

As to SIGMAR1 (from UniProt Q99720 1-223), the binding entry in [6] is reported as “binds”.

Consider NEK9 (from UniProt Q8TD19 1-979), for which the binding result in test [10] is recorded as “binds”.
